The source of these data is PubChem BioAssay AID2685 (National Center for Advancing Translational Sciences (NCATS), 2010).

Some of the results follow. The main result of the screen is listed elsewhere. These columns were measured beside it and carry no call. Most of these compounds were active or inconclusive in the main read-out, so they are no random draw. The note in brackets gives the kind of curve behind each potency; many fits are weak.

This test can be described thus: qHTS Assay for Lipid Storage Modulators in Drosophila S3 Cells.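 As to cell number change: cells counted by Cell Tracker Red CMTPX staining in the red channel.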 The conditions noted are these: BODIPY lipid droplet fluorescence, 18-24 h; for cell number change: measured here: cell count max response, cells fed with added oleic acid. Summed up:
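Drosophila S3 cells got compounds at several concentrations plus oleic acid (400 uM solution). Laser-scanning cytometry with 488 nm excitation read lipid droplets at 500-530 nm and cells at 575-640 nm. Percent activity was relative to 20 uM Triacsin C.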
For orientation: qHTS replaces the single test concentration by a dilution series.

Setting [1] is: measured here: lipid fluorescence (Fed channel) AC50, cells fed with added oleic acid.
Setting [2] is: measured here: cell number channel AC50, cells fed with added oleic acid.

`CCCCCCCC(=O)NC(Nc1ccccc1OC)C(Cl)(Cl)Cl` (stereo unspecified): the cell number change was found to be 5.61%. The concentration at half-maximal activity (AC50) under setting [1] was 25.9 µM [rising, partial curve, poor fit].
As to `O=C(O)c1ccc2c(c1)c1c3n2CCNC3CCC1` (stereo unspecified), the cell number change came to 27.6%. Further, the AC50 under setting [1] is 18.4 µM [rising, single point].
For `CCOC(=O)C1=CC[C@H]2c3c(c4ccccc4n3C)C(=O)C1N2C(=O)OC(C)(C)C`, the cell number change was -39.4%. In addition, the AC50 under setting [2] is 2.59 µM [falling, partial curve]. Moreover, under setting [1], the AC50 is 2.31 µM [falling, partial curve].
Consider `O=C(CCN1CCOCC1)NNC(=O)Nc1cccc(Cl)c1`, for which the cell number change is -7.51%. Under setting [1], the AC50 is 18.4 µM [rising, partial curve].
Take `c1coc(-c2nc3nc4ccccc4nc3n2-c2ccc3c(c2)OCCO3)c1`: the cell number change was -20.3%. Further, under setting [1], the half-maximal activity concentration (AC50) is 0.517 µM [rising, partial curve, poor fit].
Regarding `Cc1cc(OCCCn2ccnc2)ccc1C(C)C`, the cell number change was 5.67%. The AC50 under setting [1] was 2.59 µM [rising, full curve].
Turning to `CCC12CN3CC(CC)(CN(C1)C31C(=O)N(C)c3ccc(C)cc31)C2=O` (stereo unspecified), the cell number change is -1.14%. Further, the AC50 under setting [1] is 3.66 µM [falling, single point].
For `COCC(=O)Oc1c(S(=O)(=O)c2ccccc2)c(C)nn1C(C)(C)C`, the cell number change is -18%. Besides, under setting [2], the AC50 was 0.116 µM [falling, full curve, poor fit].
For the compound `Nc1nonc1N/N=C\c1ccccc1`, the cell number change is 15.3%. Moreover, the AC50 under setting [1] is 9.2 µM [rising, partial curve].
With `O=C(C1CC(c2ccccc2O)=NO1)N1CCCCC1` (stereo unspecified), the cell number change was -3.32%. The concentration at half-maximal activity (AC50) under setting [1] was 6.51 µM [falling, single point].
As to `Cc1ccc(-n2nc3c(SCCN4CCOCC4)nnc(C)c3c2C)cc1`, the cell number change worked out at 29.6%. In addition, under setting [1], the concentration at half-maximal activity (AC50) is 16.4 µM [rising, partial curve].
As for `CCC(Oc1ccccc1)C(=O)Nc1nc2ccccc2[nH]1` (stereo unspecified), the cell number change was -21.4%. Further, under setting [1], the half-maximal activity concentration (AC50) is 0.651 µM [rising, full curve].
Take `Nc1nn2c(C(F)(F)F)cc(=O)[nH]c2c1N=Nc1cccc(F)c1`: the cell number change was found to be 32.7%. Besides, the AC50 under setting [2] is 1.3 µM [rising, partial curve].
`COc1ccc(NC(=O)CC(C(=O)O)N2CCCCC2)cc1` (stereo unspecified): the cell number change turned out to be 12.5%. Moreover, the half-maximal activity concentration (AC50) under setting [1] is 0.116 µM [falling, full curve, poor fit].
Take `CCC(C)NC(=O)CSc1nc2ccc(N3CCOCC3)cc2c(=O)n1CCc1ccccc1` (stereo unspecified): the cell number change is -13.8%.
The same measure, in the same setting: under `CCN1C(=O)CC(Sc2ccccc2C(=O)O)C1=O` (stereo unspecified) stands -11.9%.
Same read-out and setting: under `CC1CC2c3cccc(C(=O)O)c3C(=O)N2c2ccc(Cl)cc21` (stereo unspecified) stands -27.9%.
Regarding `COc1ccccc1N(Cc1cc2cccc(C)c2[nH]c1=O)C(=O)C(C)C`, the cell number change is -12.6%. Also, the concentration at half-maximal activity (AC50) under setting [1] was 0.291 µM [rising, full curve, poor fit].
As for `COc1ccc(C(=O)NC(=S)NC2CCSC2=O)cc1` (stereo unspecified), the cell number change is 2.27%. Moreover, under setting [1], the half-maximal activity concentration (AC50) was 29.1 µM [rising, single point].
Turning to `Cc1cccc(/C(N)=N/OC(=O)COc2ccc(Cl)c(C)c2)c1`, the cell number change is -4.44%. The AC50 under setting [1] was 16.4 µM [rising, partial curve].
`CCOC(=O)n1c(=O)[nH]c2ccc(Br)cc21`: the cell number change was -13.6%. Also, the AC50 under setting [1] is 6.51 µM [falling, partial curve, poor fit].
For `O=C(O)C1Cc2[nH]cnc2C(c2ccc(F)cc2)N1` (stereo unspecified), the cell number change was -51.4%. In addition, the AC50 under setting [2] is 23.1 µM [falling, single point]. For the same compound, the concentration at half-maximal activity (AC50) under setting [1] was 18.4 µM [falling, single point].
`CC(C)=CC(=O)OCC(=O)Nc1ccc(F)cc1Cl`: the cell number change is -7.58%.
With `O=C(C1CCN(S(=O)(=O)c2ccc(Cl)cc2)CC1)N1CCCCCCC1`, the cell number change came to 4.33%. Under setting [1], the AC50 was 0.82 µM [falling, full curve, poor fit].
In the case of `O=c1cc(CO)oc(C(Nc2cccc(C(F)(F)F)c2)c2ccccn2)c1O` (stereo unspecified), the cell number change turned out to be 9.77%. In addition, the half-maximal activity concentration (AC50) under setting [1] is 32.6 µM [falling, single point].
For `O=C(CSc1nc2ncc(Br)cc2[nH]1)Nc1ccccc1-c1ccccc1`, the cell number change was 3.28%. Moreover, the concentration at half-maximal activity (AC50) under setting [1] was 20.6 µM [falling, single point].
`CCC(CC)c1nnc(NC(=O)C2COc3ccccc3O2)s1` (stereo unspecified): the cell number change was determined as 139%. The AC50 under setting [2] was 29.1 µM [rising, single point].
In the case of `Cc1cc(C(=O)NNC(=O)CN2C(=O)NC3(CCCCC3)C2=O)c(C)o1`, the cell number change is -2.33%. Also, the AC50 under setting [1] was 8.2 µM [falling, single point].
Turning to `COc1cccc(C(=O)NCc2ccc(-c3nc4ccccc4s3)cc2)c1`, the concentration at half-maximal activity (AC50) by setting is: under setting [2], 0.092 µM [rising, full curve, poor fit]; under setting [1], 0.231 µM [rising, full curve, poor fit].
With `CCC(C)[C@H](NC(=O)CCn1nnc2ccccc2c1=O)C(=O)O` (stereo partly specified), the cell number change turned out to be 7.48%. Under setting [1], the AC50 was 5.17 µM [falling, partial curve, poor fit].
For `C/C(=N\NC(N)=O)c1ccc(-n2ccnc2)cc1`, the cell number change turned out to be 37.2%. The AC50 under setting [1] is 0.00651 µM [rising, full curve, poor fit].
For the compound `N#Cc1c(C(F)(F)F)cc(-c2ccc(F)cc2)[nH]c1=O`, the cell number change came to 1.99%. For the same compound, under setting [2], the AC50 was 6.51 µM [rising, single point]. Moreover, the half-maximal activity concentration (AC50) under setting [1] is 2.06 µM [rising, partial curve].
In the case of `COc1cc(OC)c(C=O)c(OC(=O)N2CCOCC2)c1`, the cell number change is -9.85%. For the same compound, the concentration at half-maximal activity (AC50) under setting [1] is 0.103 µM [falling, partial curve, poor fit].
Consider `COc1cccc(C2C(C(=O)c3cc4ccccc4o3)=C(O)C(=O)N2c2cc(C)on2)c1` (stereo unspecified), for which the cell number change was determined as 27.6%.
Turning to `COc1ccccc1N1CCN(C(=O)C2CCCN(c3ncnc4c3nc3n4CCCCC3)C2)CC1` (stereo unspecified), the cell number change was found to be 4.48%. Under setting [1], the AC50 is 29.1 µM [rising, single point].
Turning to `CCC(ONc1ccccc1C(F)(F)F)(C(=O)NN(C)C)c1ccccc1` (stereo unspecified), the cell number change is -1.08%. The AC50 under setting [2] was 0.58 µM [falling, partial curve, poor fit]. For the same compound, the concentration at half-maximal activity (AC50) under setting [1] was 29.1 µM [rising, single point].
On to `Cc1ccc(NC(=O)CCCC2CCCCC2)c(O)c1`, for which the cell number change was -12.7%.
`CC(C)OCCCNc1ncnc2c1[nH]c1ccc(F)cc12`: the cell number change is -66.9%. In addition, under setting [2], the half-maximal activity concentration (AC50) was 20.6 µM [falling, single point].
On to `COc1cc(/C=C2/SC(=O)N(CC(=O)N3CCCC3)C2=O)ccc1Oc1ccc([N+](=O)[O-])cn1`, for which, under setting [1], the AC50 is 6.51 µM [falling, single point].
`CN(C)S(=O)(=O)c1ccc(N2CCCC2)c(C(=O)NC2(C)CCS(=O)(=O)C2)c1` (stereo unspecified): the cell number change turned out to be 1.5%.

Usually AC50 stands for the midpoint of the concentration-response curve, whichever way the signal moves. Higher therefore signals weaker potency.
